Measurements published in publication doi:10.1101/2022.11.22.517009.
These are yes or no findings as the source states them, for the method shown. Binding seen in cells or lysates may run through a third protein. Some results given as binding are weak or reduced against the parent protein; the word gives no strength.

Amino acid sequences for entries named in this document (tags omitted).
UniProt Q07666: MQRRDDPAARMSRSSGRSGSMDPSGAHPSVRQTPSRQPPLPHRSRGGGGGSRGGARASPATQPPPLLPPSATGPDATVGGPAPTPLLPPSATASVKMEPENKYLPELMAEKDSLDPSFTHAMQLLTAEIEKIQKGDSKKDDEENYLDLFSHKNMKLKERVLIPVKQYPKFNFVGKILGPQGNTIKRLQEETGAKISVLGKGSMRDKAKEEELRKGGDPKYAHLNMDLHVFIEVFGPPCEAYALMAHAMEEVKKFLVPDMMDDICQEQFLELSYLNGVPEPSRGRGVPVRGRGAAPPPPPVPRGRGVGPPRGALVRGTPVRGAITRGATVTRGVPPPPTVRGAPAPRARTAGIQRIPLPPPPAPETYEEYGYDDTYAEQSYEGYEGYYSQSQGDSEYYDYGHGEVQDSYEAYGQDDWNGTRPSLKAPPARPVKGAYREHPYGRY
UniProt P62993: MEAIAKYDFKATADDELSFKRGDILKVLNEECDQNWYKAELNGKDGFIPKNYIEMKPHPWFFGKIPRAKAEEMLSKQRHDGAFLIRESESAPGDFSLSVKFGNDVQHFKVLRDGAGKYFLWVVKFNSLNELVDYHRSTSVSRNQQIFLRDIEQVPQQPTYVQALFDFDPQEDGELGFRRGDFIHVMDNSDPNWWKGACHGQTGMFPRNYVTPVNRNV

Molecular target: Src-Associated in Mitosis 68 kDa protein (SAM68/KHDRBS1) (human (endogenous in Beas2B)) (UniProt Q07666)
Test: co-IP

binding: binds
Substance: Grb2 (from UniProt P62993 1-217)
